The other results are listed elsewhere or left out.

Some test systems named below: C17orf48 (human); C17orf56 (human); C19orf12 (human); C1orf162 (human); C1orf38 (human); C1orf51 (human); C1orf91 (human); C20orf114 (human); C20orf141 (human); C20orf142 (human); C20orf160 (human); C20orf3 (human); C21orf2 (human); C21orf33 (human); C21orf7 (human); C21orf91 (human); C2orf18 (human); C2orf33 (human); C2orf43 (human); C4BPB (human).
What all share (assay): protein microarray (ProtoArray v5.0), streptavidin-Alexa Fluor 647
Holding throughout (conditions): 3'-biotin; 20 mM Tris (pH 7.5), 5 mM MgCl2, 100 mM KCl, 0.1% Tween-20, A/T-rich and random oligonucleotide blockers; temperature not stated; high values mean tight binding

“GGGGACAGGGGTATGGGGAGGGG [G4-3 biotinylated (CtG)]”: the binding signal in the assay with C17orf48 (human) was -0.333 z-score; in the assay with C17orf56 (human) it was -0.318 z-score; with C19orf12 (human), -0.343 z-score; in the assay on C1orf162 (human), -0.312 z-score; in the assay on C1orf38 (human) it was -0.32 z-score; in the assay with C1orf51 (human) it was -0.292 z-score. Further, the binding signal was -0.334 z-score in the assay on C1orf91 (human); -0.32 z-score in the assay on C20orf114 (human); -0.315 z-score in the assay on C20orf141 (human); -0.333 z-score in the assay on C20orf142 (human); -0.329 z-score with C20orf160 (human); -0.329 z-score in the assay with C20orf3 (human). The binding signal in the assay on C21orf2 (human) was -0.292 z-score; in the assay on C21orf33 (human), -0.335 z-score; in the assay with C21orf7 (human) it was -0.329 z-score; in the assay with C21orf91 (human) it was -0.325 z-score; in the assay with C2orf18 (human) it was -0.317 z-score; with C2orf33 (human), -0.333 z-score. Further, the binding signal with C2orf43 (human) is -0.338 z-score; in the assay on C4BPB (human) it was -0.309 z-score.

(Values after paper PMC5996148.)
